The values below come from patent US7943356B2, “Alcohol dehydrogenase for the stereoselective production of hydroxy compounds” (Codexis, Inc., priority 2004, dated 2011).

The nature of series [1]: Reduction of 2,4-pentanedione, substrate and product contents after 48 hrs. Conditions: 30° C., 50 mM Tris/HCl pH 7.0, NADP. The class given is biochemical.
Series [2] can be described thus: Conversion of 2-pentanone with substrate-coupled cofactor regeneration (isopropanol). The following applies: 200 mM 2-pentanone, 3 U/ml ADH T, 0.05 mM NADP. The format is biochemical. An excerpt: In fact, it can be shown that the enantioselectivity in the reduction of critical ketones such as 2-pentanone or 2-butanone by substrate-coupled cofactor regeneration with isopropanol is also far better than with the use of enzyme-coupled cofactor regeneration.
Also, the achievable enantiomeric purity of the product depends on the quantity of isopropanol used (Table 9).

[3] abbreviates: enzyme-coupled, glucose dehydrogenase, 10 U/ml enzyme.
The mark [4] stands for this setting: substrate-coupled, isopropanol (10%), 5 U/ml enzyme.

B1: ADH T: thermally stable, (S)-selective NADP-dependent alcohol dehydrogenase from Thermoanaerobacter species (SEQ ID NO: 2), recombinant (protein)
chain: MKGFAMLSIGKVGWIEVEKPNPGPFDAIVRPLAVAPCSSDIHTVFEGGLGELHNAVLGHEAVGEVVEVGSEVKDFKPGDKVVIPAITPDWRTLDVQRGYHQQSGGMLAGYKFTAQKPGVFAEYIYVNDADMNLAHLPDGISLEAAVMITDMMTTGFHGAELAEIELGATVAVLGIGPVGLMAVAGAKLRGAGRIIAVGSRPVCVDAAKYYGATDIVNYKNGPIDSQIMDLTKGKGVDAAIIAGGNVDIMATAVKIVKPGGTIANVNYFGEGDVLPVPRLEWGCGMAHKAIKGGLCPGGRLRMERLIDLVFYKRVDPSKLVTHVFQGFDNIEKALMLMKDKPKDLIKPVVILA
modifications: Thermoanaerobacter species
In the case of B1, the “(S)-4-hydroxy-2-pentanone content” value in series [1] (setting [3]) turned out to be 14.6%; in series [1] (setting [4]), 82.6%. Moreover, the figures for the “(S,S)-2,4-pentanediol content” value in series [1] (setting [3]) and in series [1] (setting [4]) were 85.4% and 17.4%, respectively. For the same molecule, the ee in series [2] (100 mM Tris-Cl pH 7.0, 20% isopropanol, 24 hours) is 98.9%; in series [2] (100 mM Tris-Cl pH 7.0, 20% isopropanol, 48 hours) it was 98.3%; in series [2] (100 mM Tris-Cl pH 7.0, 50% isopropanol, 24 hours), 99.9%; in series [2] (100 mM Tris-Cl pH 7.0, 50% isopropanol, 48 hours), 99.9%.
